In PMC6180065, “Deciphering molecular details in the assembly of alpha-type carboxysome” (Scientific Reports, 2018):
Where a chain is given by its changes, count along the chain named. These are yes or no findings as the source states them, for the method shown. Binding seen in cells or lysates may run through a third protein. Some entries that bind do so weakly or less than the wild type. Tags and fused reporters may be left off the sequences shown.

What was measured:
[1] = biological target: T1, CbbL(N)-6xHis (Halothiobacillus neapolitan (ATCC 23641)) (UniProt O85040); assay: pull-down; CbbL(N)-6xHis co-expressed in E. coli with each shell protein separately; Ni Sepharose, SDS-PAGE
T1 sequence: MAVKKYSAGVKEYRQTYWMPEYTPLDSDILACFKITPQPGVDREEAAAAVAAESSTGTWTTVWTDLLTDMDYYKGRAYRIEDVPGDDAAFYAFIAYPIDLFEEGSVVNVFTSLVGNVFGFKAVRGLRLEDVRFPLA

[2] = biological target: T2, CbbL(1–73) fused to the N terminus of MBP with a C-terminal 6xHis tag (Halothiobacillus neapolitan (ATCC 23641)) (UniProt O85040); assay: pull-down; truncated CbbL(N) segments fused to MBP-6xHis with CsoS1A or CsoS1C; ligand binding ratio by densitometry, as percentage of that of the entire N domain
T2 sequence: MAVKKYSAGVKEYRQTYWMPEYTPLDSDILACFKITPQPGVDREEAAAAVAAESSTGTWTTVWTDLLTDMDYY

[3] = biological target: T3, CbbL(1–122) fused to the N terminus of MBP with a C-terminal 6xHis tag (Halothiobacillus neapolitan (ATCC 23641)) (UniProt O85040); assay: as above
T3 sequence: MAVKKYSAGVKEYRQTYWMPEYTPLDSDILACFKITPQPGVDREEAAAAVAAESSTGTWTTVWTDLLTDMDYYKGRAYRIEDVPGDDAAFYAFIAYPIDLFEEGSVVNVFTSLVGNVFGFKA

[4] = biological target: T4, CbbL(1–100) fused to the N terminus of MBP with a C-terminal 6xHis tag (Halothiobacillus neapolitan (ATCC 23641)) (UniProt O85040); assay: as above
T4 sequence: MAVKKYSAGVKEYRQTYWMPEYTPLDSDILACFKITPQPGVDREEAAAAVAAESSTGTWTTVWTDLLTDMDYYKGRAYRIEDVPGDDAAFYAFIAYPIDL

[5] = biological target: T5, CbbL(1–136) fused to the N terminus of MBP with a C-terminal 6xHis tag (Halothiobacillus neapolitan (ATCC 23641)) (UniProt O85040); assay: as above
T5 sequence: T1 sequence

[6] = biological target: T6, CbbL(N)-mCherry-6xHis (Halothiobacillus neapolitan (ATCC 23641)) (UniProt O85040); assay: pull-down; CbbL(N)-mCherry-6xHis co-expressed in E. coli with all shell proteins (CsoS1A/1B/1C/1D, CsoS4A/4B; plasmid pZS-23641-CsoS41); cell extract on Ni resin; additional SDS-PAGE band identified by proteomics analysis
T6 sequence: T1 sequence

Measured: binding

B1: CsoS1A (protein, UniProt P45689 1-98)
chain: MADVTGIALGMIETRGLVPAIEAADAMTKAAEVRLVGRQFVGGGYVTVLVRGETGAVNAAVRAGADACERVGDGLVAAHIIARVHSEVENILPKAPQA
binds: all assays above

B2: CsoS1C-6xHis (natural protein, Halothiobacillus neapolitan (ATCC 23641))
chain: B1 chain with D3A, Q97E
notes: Carboxysome shell protein CsoS1C of Halothiobacillus neapolitan (ATCC 23641); printed length 98 a.a; not measured in the assay
binds: all assays above

B3: CsoS1B (protein, UniProt P45690 1-110)
chain: MATTHGIALGMIETRGLVPAIEAADAMTKAAEVRLVGRSFVGGGYVTVMVRGETGAVNAAVRAGADACERVGDGLVAAHIIARVHSEVEIILPETPEDSDSAWCIANLNS
binds: [1]
